{"source": "PubChem BioAssay AID652272, Drosophila RNAi Screening Center, 2013", "test": "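Finding fly genes that regulate Hedgehog signal transduction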 (primary screen)", "cell system": "Drosophila clone 8 (Cl8) cells", "reagent": "long dsRNA against Drosophila genes", "measurement": "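Plate reader light from a firefly reporter under a ptc promoter fragment that responds to Hedgehog, with Renilla light as transfection reference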", "scale": "firefly Hh reporter signal: higher = more ptc reporter light; Renilla reference signal: higher = more Renilla control light", "hit rule": "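Hit when the z-score averaged over two replicates is under -2 or over +3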", "meaning of the calls": "active = hit: reporter lowered or raised; inactive = not a hit", "note": "In all, the deposit lists about 21,000 reagents; below is a random part of those with a known target gene and a result. In the full data, 503 (2.4%) were called active. 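Raw plate light values, not normalised; calls rest on replicate z-scores that were not deposited; hits include reporter decreases as well as increases.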 Entries without a mark were called inactive. Not given: the amount of reagent, the time to read-out."}
{"target gene": "CG11596", "dsRNA": "DRSC18540", "firefly Hh reporter signal, replicate 1": 1.03e5, "firefly Hh reporter signal, replicate 2": 68896, "Renilla reference signal, replicate 1": 2176, "Renilla reference signal, replicate 2": 2160}
{"target gene": "MED10 (Mediator complex subunit 10)", "dsRNA": "DRSC10474", "firefly Hh reporter signal, replicate 1": 1.29e5, "Renilla reference signal, replicate 1": 5604, "Renilla reference signal, replicate 2": 3329}
{"target gene": "ImpL2 (Ecdysone-inducible gene L2)", "dsRNA": "DRSC08666", "firefly Hh reporter signal, replicate 1": 96304, "firefly Hh reporter signal, replicate 2": 62824, "Renilla reference signal, replicate 1": 4160, "Renilla reference signal, replicate 2": 3106}
{"target gene": "Act5C (Actin 5C)", "dsRNA": "DRSC17723", "firefly Hh reporter signal, replicate 1": 39254, "firefly Hh reporter signal, replicate 2": 1.24e5, "Renilla reference signal, replicate 1": 1376, "Renilla reference signal, replicate 2": 5016}
{"target gene": "Eglp3 (Entomoglyceroporin 3)", "dsRNA": "DRSC04293", "firefly Hh reporter signal, replicate 1": 65728, "firefly Hh reporter signal, replicate 2": 46832, "Renilla reference signal, replicate 1": 1504, "Renilla reference signal, replicate 2": 4139}
{"target gene": "U4-U6-60K (U4-U6 small nuclear riboprotein factor 60K)", "dsRNA": "DRSC10624", "firefly Hh reporter signal, replicate 1": 1.09e5, "firefly Hh reporter signal, replicate 2": 69031, "Renilla reference signal, replicate 1": 4816, "Renilla reference signal, replicate 2": 3282}
{"target gene": "Prosap", "dsRNA": "DRSC06382", "firefly Hh reporter signal, replicate 1": 81698, "firefly Hh reporter signal, replicate 2": 71357, "Renilla reference signal, replicate 1": 2176, "Renilla reference signal, replicate 2": 4704}
{"target gene": "Prosap", "dsRNA": "DRSC07081", "firefly Hh reporter signal, replicate 1": 96081, "firefly Hh reporter signal, replicate 2": 70064, "Renilla reference signal, replicate 1": 4052, "Renilla reference signal, replicate 2": 2817}

2 neighbouring records already listed:
{"target gene": "CG11596", "dsRNA": "DRSC18540", "firefly Hh reporter signal, replicate 1": 1.03e5, "firefly Hh reporter signal, replicate 2": 68896, "Renilla reference signal, replicate 1": 2176, "Renilla reference signal, replicate 2": 2160}
{"target gene": "MED10 (Mediator complex subunit 10)", "dsRNA": "DRSC10474", "firefly Hh reporter signal, replicate 1": 1.29e5, "Renilla reference signal, replicate 1": 5604, "Renilla reference signal, replicate 2": 3329}

Continued.
{"target gene": "Rcc1 (Regulator of chromosome condensation 1)", "dsRNA": "DRSC09684", "firefly Hh reporter signal, replicate 1": 70685, "firefly Hh reporter signal, replicate 2": 59380, "Renilla reference signal, replicate 1": 3408, "Renilla reference signal, replicate 2": 2897}
{"target gene": "ScsbetaA (Succinyl-coenzyme A synthetase beta subunit, ADP-forming)", "dsRNA": "DRSC14446", "firefly Hh reporter signal, replicate 1": 91469, "firefly Hh reporter signal, replicate 2": 66346, "Renilla reference signal, replicate 1": 3530, "Renilla reference signal, replicate 2": 2528}
{"target gene": "CG8773", "dsRNA": "DRSC16444", "firefly Hh reporter signal, replicate 1": 1.43e5, "firefly Hh reporter signal, replicate 2": 1.22e5, "Renilla reference signal, replicate 1": 6643, "Renilla reference signal, replicate 2": 4645}
{"target gene": "Blos1", "dsRNA": "DRSC05970", "firefly Hh reporter signal, replicate 1": 59852, "firefly Hh reporter signal, replicate 2": 46549, "Renilla reference signal, replicate 1": 1701, "Renilla reference signal, replicate 2": 3440}
